# Data reported in the supplement of paper PMC12889115.
# Some of the results follow. Values are raw readings; no control value is given beside them.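 First-pass screen: polymyxin B was added at a level that permeabilizes the Salmonella outer membrane while sparing the inner membrane. DMSO wells, with and without polymyxin B, defined maximum growth. Because plates differed from one another, each plate's data were ranked separately and the compounds with the lowest OD600 were carried forward as hits.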
# System: Salmonella enterica serovar Typhimurium SL1344
# Assay: bacterial growth OD600 after 18 h with compound and polymyxin B; higher = more bacterial growth (less inhibition)
# Settings: 50 µM, Mueller-Hinton broth
SMILES,bacterial growth OD600 (polymyxin B 0.75 µg/mL),bacterial growth OD600 (polymyxin B 1 µg/mL)
CCS(=O)(=O)Nc1cc(C(=O)NC(C)Cc2ccccn2)c2c(c1)nc(-c1ccccc1)n2C (stereo not given),0.776,–
CCn1c(CN2CCC(O)(Cc3cc(-c4ccccc4)no3)CC2)nc2ccccc21,–,0.875
CCC(C)CC(=O)N1CCC(C2(c3cccnc3)NC(=O)N(CCc3cccs3)C2=O)CC1 (stereo not given),0.885,–
CC(C)CCNC(=O)c1cn(CC(C)C)cc(C(=O)N2CCN(C(C)C)CC2)c1=O,0.885,–
Cc1ncoc1C(=O)N1CCC(C2CCN(c3ncccn3)CC2)C1 (stereo not given),0.817,–
c1cnc(N2CCC(C3CCN(C4CSCCSC4)C3)CC2)nc1 (stereo not given),0.794,–
COc1ccc(CN2CCN(Cc3ccc(O)cc3)CC2CCO)c(F)c1 (stereo not given),–,0.89
CCn1ccnc1CN1CCC(CCC(=O)Nc2ccc(OC)cc2OC)CC1,–,1.01
Cc1ccccc1-n1cc(CN(C)C(=O)CCC2(Cc3ccc(Cl)cc3)CCC(=O)N2)cn1 (stereo not given),0.847,–
Cc1cc(CN2CCC(N3CCC(C(=O)NCc4cccnc4)CC3)CC2)oc1C,–,0.796
CN(C(=O)c1ccco1)C(Cc1ccccc1Cl)C1CCN(Cc2ccccc2F)CC1 (stereo not given),0.796,–
COc1ccc(S(=O)(=O)NCC2CCCN(C(=O)c3ccccc3N(C)C)C2)cc1 (stereo not given),0.836,–
COC(=O)CN(C)C(=O)c1ccc(OC2CCN(C(=O)C3CC3)CC2)cc1,–,0.934
CCn1ccnc1CN(C)c1ccc(-c2nc(COC)no2)cn1,–,1.02
Cc1nc(CC(=O)NCc2cccnc2Oc2ccccc2)cs1,–,0.836
CCN(CC)CC(=O)NC1CCCN(C2CCCCCC2)C1 (stereo not given),0.818,–
COc1ccc(F)c(CC2(CCC(=O)N3CCC(C(O)c4ccccc4)CC3)CCC(=O)N2)c1 (stereo not given),0.813,–
COc1cccc(C2CCCCN2Cc2nc(-c3ccc(F)c(OC)c3)oc2C)c1 (stereo not given),–,0.671
COc1ccccc1OCC(=O)NCC1CCCN(Cc2ccc(SC)cc2)C1 (stereo not given),–,0.905
CCC(O)CNC(=O)CCc1nnc(C2(c3ccc(Cl)cc3)CCC2)o1 (stereo not given),–,0.963
COc1ccc(CC(=O)NCC2CCCN(C(=O)CSC)C2)cc1 (stereo not given),0.854,–
COCCC(=O)NC1CC(=O)N(CCc2ccccc2)C1 (stereo not given),–,1.1
CN(Cc1ccc(F)cc1)c1ccc(OCC(=O)NCC2(N3CCOCC3)CCCCC2)nn1,0.012,–
CO[C@H]1[C@H](NC(=O)CSC)c2ccccc2C12CCN(Cc1ccc(N3CCCC3)cc1)CC2,0.003,–
COCCN1C(=O)CC(CC(=O)N2CCCC(c3cccc(C)c3)C2)(c2ccccc2OC)C1=O (stereo not given),0.002,–
CCOC(=O)N1CCN(C(=O)c2ccc(N3CCC(NCCCN4CCCC4=O)CC3)cc2)CC1,0.758,–
O=C(c1ccccc1OC1CCN(Cc2cc3ccccc3o2)CC1)N1CCCC1,–,0.912
Cc1cc(C)nc(CNc2nncc(-c3cc4ccccc4o3)n2)n1,0.8,–
COc1ccc(CN(C)Cc2nc(Cc3ccccc3Cl)no2)cc1OC,–,0.903
CN(C)c1cc(N2CCC(C3CCN(Cc4cccnc4)CC3)C2)ncn1 (stereo not given),0.903,–

# 3 compounds already listed, arranged by formula weight, rising:
SMILES,bacterial growth OD600 (polymyxin B 0.75 µg/mL),bacterial growth OD600 (polymyxin B 1 µg/mL)
Cc1nc(CC(=O)NCc2cccnc2Oc2ccccc2)cs1,–,0.836
COc1cccc(C2CCCCN2Cc2nc(-c3ccc(F)c(OC)c3)oc2C)c1 (stereo not given),–,0.671
CN(Cc1ccc(F)cc1)c1ccc(OCC(=O)NCC2(N3CCOCC3)CCCCC2)nn1,0.012,–
